Read-outs that look alike come from different tables or passages of the source.
Experiments:
[1] = biological target: T1, bovine serum albumin (BSA) (Bos taurus, UniProt P02769); conditions: for n, number of binding sites (bound gliclazide molecules) / Stern–Volmer quenching constant KSV: BSA–DRUG–GLICL; for Stern–Volmer quenching constant KSV: GLICL as quencher 0–14 µM, DRUG 8 µM (DRUG:BSA 4:1), λex 280 nm
Method: (§1) Bovine serum albumin (≥96%) was used to prepare 1.2 mM stock solution in PBS (pH 7.4). […] The concentration of BSA was controlled by the spectrophotometric method at 280 nm (with a molar coefficient of 43,824 cm^−1 M^−1). […] Simultaneously, a control sample containing BSA solution without any ligands was prepared. Measurements were performed in triplicate. All reagents were received from Sigma-Aldrich (St. Luis, MO, USA).
Fluorescence intensities of ternary models (BSA–DRUG–GLICL) were recorded using a Jasco FP-8200 spectrofluorometer with Peltier-thermo Cell Holder ETC-814 (Tokyo, Japan) at excitation wavelength of 280 nm, equipped with 1.0 cm quartz cells. The slit widths were set at 5 nm. The measurements were conducted at two different temperatures, 298 and 310 K. The fluorescence spectra of the drugs alone were also recorded. Each spectrum background was corrected by subtracting the spectrum of the phosphate buffer as a blank sample.
According to the assumption that fluorophores in a protein molecule may differ in accessibility, modified Stern–Volmer Equation (2) was used for the construction of plots and to calculate quenching constants:(2) F0/F0−F=1/fa·KSV·Q+1/fa where F0 and F are the fluorescence intensities in the absence and presence of gliclazide (GLICL), respectively; fa is the fraction of the initial fluorescence accessible to the quencher; Ksv is the Stern–Volmer quenching constant; and Q is the concentration of the quencher (GLICL).
The binding parameters (binding constant and number of binding sites) were obtained from double-log modified Stern–Volmer Equation (3):(3) logF0−F/F=logKa+n·logQ where F0 and F are the fluorescence intensities in the absence and presence of the quencher (gliclazide), respectively; Ka is the binding constant of the complex BSA–DRUG–GLICL, expressed as M^−1; n is the number of bound gliclazide molecules; and Q is the concentration of the quencher (GLICL).

Protein sequences, listed by entry. Tags and fused reporters are not part of them. Residues count along the entry.
UniProt P02769, 25-607: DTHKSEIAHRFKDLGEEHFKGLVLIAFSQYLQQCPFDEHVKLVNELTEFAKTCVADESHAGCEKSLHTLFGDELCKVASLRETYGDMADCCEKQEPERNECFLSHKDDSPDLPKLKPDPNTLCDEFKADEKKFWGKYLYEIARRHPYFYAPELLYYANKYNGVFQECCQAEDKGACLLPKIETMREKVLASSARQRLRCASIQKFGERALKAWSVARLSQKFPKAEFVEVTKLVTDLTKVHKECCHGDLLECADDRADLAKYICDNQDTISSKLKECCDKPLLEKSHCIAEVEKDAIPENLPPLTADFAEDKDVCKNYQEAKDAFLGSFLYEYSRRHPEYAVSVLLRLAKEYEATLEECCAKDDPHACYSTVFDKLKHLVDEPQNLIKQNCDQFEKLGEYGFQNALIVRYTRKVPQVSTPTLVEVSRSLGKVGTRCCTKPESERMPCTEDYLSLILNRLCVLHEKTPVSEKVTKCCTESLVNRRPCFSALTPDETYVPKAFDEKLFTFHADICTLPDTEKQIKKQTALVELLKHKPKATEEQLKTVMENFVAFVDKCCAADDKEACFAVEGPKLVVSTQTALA

[2] = biological target: T1, bovine serum albumin (BSA); conditions: for Decreased α-Helix (%): vs BSA alone
Method: as §1
The circular dichroism spectra data were recorded using JASCO J-1500 spectropolarimeter (Tokyo, Japan) in the range of 205–250 nm, with a scanning speed of 200 nm/min and with 0.1 step resolution using a quartz cuvette with a length path of 0.1 cm. The measurements were conducted for binary (BSA–DRUG) and ternary (BSA–DRUG–GLICL) models to provide information about the influence of ligand binding on the protein structure. The baseline was corrected using a phosphate buffer, pH = 7.4.
Mean residue ellipticity (MRE) was calculated according to the following Equation (7) and expressed in deg cm^2 dmol^−1:(7) MRE=Θobs/cp·n·l·10 where Θobs is the observed CD (in mdegree), Cp is the molar concentration of BSA, n is the number of amino acid residues (583 for BSA), and l is the path length of the cuvette (0.1 cm).
The α-helical contents of free and modified BSA were calculated from MRE values at 208 nm with Equation (8):(8) α-helix (%)=MRE208−4000/33,000−4000 ·100 where MRE208 is the observed MRE value at 208 nm, 4000 is the MRE of the β-form and random coil conformation cross at 208 nm, and 33,000 is the MRE value of the pure α-helix of BSA at 208 nm.

[3] = biological target: T1, bovine serum albumin (BSA); conditions: BSA–GLICL complex in presence of DRUG; for ΔH / ΔS: 298 303 310 K
Method: as §1
The thermodynamic analysis of the interaction between albumin and GLICL was performed on measurements at three temperatures (298, 303, 310 K) based on the van’t Hoff Equations (4)–(6):(4) ΔG=−R·T·lnKa (5) ΔG=ΔH−T·ΔS (6) lnKa=−ΔH/R·T+ΔS/R where ΔG is the free energy change, ΔH is the enthalpy change, ΔS is the entropy change, R is the universal gas constant, and T is the temperature.

plasma protein = conditions: cited from earlier work
[4] = binary BSA–DRUG, molar ratio 1:4, 310 K
[5] = ternary BSA–DRUG–GLICL, BSA:Ligand 1:4, BSA:GLICL 1:7, 310 K

| n, number of binding sites (bound gliclazide molecules) ([1]; 298 K) | n, number of binding sites (bound gliclazide molecules) ([1]; 310 K) | Stern–Volmer quenching constant KSV ([1]; 298 K) | Stern–Volmer quenching constant KSV ([1]; 310 K) | Mechanism of quenching of BSA fluorescence by GLICL in presence of DRUG ([1]; from temperature dependence of KSV, 298 vs 310 K) | ΔG ([3]; 310 K) [kJ/mol] | SMILES | Decreased α-Helix (%) [2, 4] [%] | Decreased α-Helix (%) [2, 5] [%] | ΔH [3] [kJ/mol] | ΔS [3] [J/mol K] | ΔG ([3]; 298 K) [kJ/mol] | ΔG ([3]; 303 K) [kJ/mol] | α-Helix Content (%) ([2]; binary BSA–DRUG, molar ratio 1:4, 310 K (BSA alone 68.7)) | α-Helix Content (%) ([2]; ternary BSA–DRUG–GLICL, BSA:Ligand 1:4, BSA:GLICL 1:7, 310 K (BSA alone 68.7)) | Binding to serum albumin (plasma protein) |
| --- | --- | --- | --- | --- | --- | --- | --- | --- | --- | --- | --- | --- | --- | --- | --- |
| 0.96 ± 0.01 | 0.98 ± 0.01 | 1.32 ± 0.13 10^4 M^−1 | 0.90 ± 0.10 10^4 M^−1 | static mechanism | -23.37 | CC(C)NCC(O)COc1ccc(CC(N)=O)cc1 (stereo not drawn) [ATN, atenolol] | 0.5 | 2.2 | 25.94 | 159.06 | -21.46 | -22.25 |  |  |  |
|  |  |  |  |  |  | NS(=O)(=O)c1cc(C(=O)O)c(NCc2ccco2)cc1Cl [FUR, furosemide] | 1.3 | 3.9 | 380.01 | 1310.00 | -10.38 | -16.93 | 67.3 | 64.8 | over 95% |
